PubChem BioAssay AID1224830 – NIAID | 2016

Screen: 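Regulators of TLR4 signalling towards TNF-alpha in macrophage-like cells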 (primary screen)
Cells: human THP-1 monocytic leukaemia cells, TNF dual-luciferase reporter clone, PMA-differentiated to macrophage-like cells
Reagent: siRNA pool against human genes, 50 nM
Time to read-out: LPS for 4 h, given about 3 days after siRNA transfection
Conditions: bacterial LPS (TLR4 ligand), 10 ng/ml
Read-out: 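TNF firefly reporter luminescence divided by renilla, normalised to the plate median, then turned into a robust z-score for each replicate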
Scale: TNF reporter robust z-score: higher = stronger TNF reporter response to LPS
Call rule: 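a well is active when its z-score exceeds 2.8 or falls below -1.5; control wells carry no call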
The whole screen tested about 18,000 reagents; shown is a part drawn at random. About 2,900 of all reagents (16%) count as active. 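Calls are made per well; low scores hint the gene aids the LPS response, high scores that it dampens it.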 A number with no mark means an inactive call. Repeated entries: four replicate wells of each siRNA pool. No sequences are given here.

| gene | TNF reporter robust z-score |
| --- | --- |
| G0S2 | -0.62 |
| G0S2 | 0.19 |
| G0S2 | -0.1 |
| G0S2 | 0.04 |
| PRUNE1 | -0.13 |
| PRUNE1 | -0.78 |
| PRUNE1 | 0.72 |
| PRUNE1 | 0.02 |
| MED24 | 1.11 |
| MED24 | 1.16 |
| MED24 | 0.39 |
| MED24 | 1.17 |
| PTGS2 | -0.35 |
| PTGS2 | -0.63 |
| PTGS2 | 0.65 |
| PTGS2 | 0.37 |
| COLEC10 | -0.07 |
| COLEC10 | -0.7 |
| COLEC10 | -0.29 |
| COLEC10 | -0.58 |
| CCDC191 | -0.47 |
| CCDC191 | -0.39 |
| CCDC191 | -0.07 |
| CCDC191 | 0.47 |
| VKORC1 | -0.5 |
| VKORC1 | 1.95 |
| VKORC1 | 0.43 |
| VKORC1 | 3.98 (active) |
| STAT4 | -0.74 |
| STAT4 | -0.42 |
| STAT4 | 0 |
| ABHD13 | -0.23 |
| ABHD13 | -0.92 |
| ABHD13 | 0.38 |
| ABHD13 | -0.33 |
| VAMP1 | 0.06 |
| VAMP1 | -0.49 |
| VAMP1 | 0.21 |
| VAMP1 | 0.52 |
| RALGDS | 1.99 |
| RALGDS | 0.85 |
| RALGDS | -0.95 |
| RALGDS | -1.37 |
| BRD1 | -0.26 |
| BRD1 | -0.76 |
| BRD1 | -0.11 |
| BRD1 | -0.45 |
| RADIL | -0.61 |
| RADIL | 2.15 |
| RADIL | -0.53 |
| RADIL | 0.85 |
| GARIN6 | -0.3 |
| GARIN6 | 0.7 |
| GARIN6 | -0.56 |
| GARIN6 | -0.66 |
| AKAP7 | -0.6 |
| AKAP7 | -0.19 |
| AKAP7 | -0.79 |
| AKAP7 | 0.17 |
| TSPAN7 | 0.97 |
| TSPAN7 | 1.92 |
| TSPAN7 | 0.55 |
| TSPAN7 | 2.16 |
| ZFR | -0.52 |
| ZFR | 0.64 |
| ZFR | 1.47 |
| ZFR | 2.06 |
| NPBWR1 | 4.82 (active) |
| NPBWR1 | -0.79 |
| NPBWR1 | -0.25 |
| NPBWR1 | 0.67 |
| SPMIP10 | 0.99 |
| SPMIP10 | 0.75 |
| SPMIP10 | 0.88 |
| SPMIP10 | 1.38 |

Called active, among the entries above:
| gene | TNF reporter robust z-score |
| --- | --- |
| VKORC1 | 3.98 (active) |
| NPBWR1 | 4.82 (active) |
